Experimental data from paper PMC9507364.
Results are given in words; binding and its absence hold for the method and conditions named. Sequences can lack the tags named with a protein.

Tests used:
[1] = biological target: mCherry-tagged SgII (SgII-mCherry) (mouse) (UniProt Q03517); test: AUC; sedimentation velocity, 4 °C, 45000 rpm, absorbance at 280 nm, SEDFIT; pH 5.5; self-association; both purified
[2] = biological target: secretogranin II (SgII), His-mCherry tag removed (mouse) (UniProt Q03517); test: cryo-EM micrographs; purified SgII under acidic conditions (pH 5.5); no filaments seen; both purified

B1: mCherry-tagged SgII (SgII-mCherry) (protein, UniProt Q03517 31-617)
chain: QRNQLLQKEPDLRLENVQKFPSPEMIRALEYIEKLRQQAHREESSPDYNPYQGVSVPLQLKENGEESHLAESSRDALSEDEWMRIILEALRQAENEPPSAPKENKPYALNLEKNFPVDTPDDYETQQWPERKLKHMRFPLMYEENSRENPFKRTNEIVEEQYTPQSLATLESVFQELGKLTGPSNQKRERVDEEQKLYTDDEDDVYKTNNIAYEDVVGGEDWSPIEEKIETQTQEEVRDSKENTEKNEQINEEMKRSGQLGLPDEENRRESKDQLSEDASKVITYLRRLVNAVGSGRSQSGPNGDRAARLLQKPLDSQSIYQLIEISRNLQIPPEDLIEMLKAGEKPNGLVEPEQDLELAVDLDDIPEADLDRPDMFQSKMLSKGGYPKAPGRGMVEALPDGLSVEDILNVLGMENVVNQKSPYFPNQYSQDKALMRLPYGPGKSRANQIPKVAWIPDVESRQAPYENLNDQELGEYLARMLVKYPELLNTNQLKRVPSPVSSEDDLQEEEQLEQAIKEHLGPGSSQEMERLAKVSKRIPVGSLKNEDTPNRQYLDEDMLLKVLEYLNQEQAEQGREHLAKRAMENM
- binding [1]: no binding (condition: at pH 5.5)

B2: secretogranin II (SgII), His-mCherry tag removed (protein, UniProt Q03517 31-617)
chain: QRNQLLQKEPDLRLENVQKFPSPEMIRALEYIEKLRQQAHREESSPDYNPYQGVSVPLQLKENGEESHLAESSRDALSEDEWMRIILEALRQAENEPPSAPKENKPYALNLEKNFPVDTPDDYETQQWPERKLKHMRFPLMYEENSRENPFKRTNEIVEEQYTPQSLATLESVFQELGKLTGPSNQKRERVDEEQKLYTDDEDDVYKTNNIAYEDVVGGEDWSPIEEKIETQTQEEVRDSKENTEKNEQINEEMKRSGQLGLPDEENRRESKDQLSEDASKVITYLRRLVNAVGSGRSQSGPNGDRAARLLQKPLDSQSIYQLIEISRNLQIPPEDLIEMLKAGEKPNGLVEPEQDLELAVDLDDIPEADLDRPDMFQSKMLSKGGYPKAPGRGMVEALPDGLSVEDILNVLGMENVVNQKSPYFPNQYSQDKALMRLPYGPGKSRANQIPKVAWIPDVESRQAPYENLNDQELGEYLARMLVKYPELLNTNQLKRVPSPVSSEDDLQEEEQLEQAIKEHLGPGSSQEMERLAKVSKRIPVGSLKNEDTPNRQYLDEDMLLKVLEYLNQEQAEQGREHLAKRAMENM
- binding [2]: no binding (condition: under acidic conditions (pH 5.5))
